Measurements as given in PubChem BioAssay AID2685 (National Center for Advancing Translational Sciences (NCATS), 2010).
The list shows a part of the results. Further columns of the screen follow, without active or inactive calls. Most of these compounds were active or inconclusive in the main read-out, so they are no random draw. The note in brackets gives the kind of curve behind each potency; many fits are weak.

Experiment: qHTS Assay for Lipid Storage Modulators in Drosophila S3 Cells;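 for cell number change: cells counted by Cell Tracker Red CMTPX staining in the red channel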
Settings: BODIPY lipid droplet fluorescence, 18-24 h; for cell number change: measured here: cell count max response, cells fed with added oleic acid
Summary of the method: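 Laser-scanning cytometry quantifies lipid droplet accumulation (500–530 nm total intensity; droplet/cell object ratio) in oleic acid-fed (400 uM added) Drosophila S3 cells treated with a concentration series. 20 uM Triacsin C defined 100% inhibition.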

[1] = measured here: cell number channel AC50, cells fed with added oleic acid
[2] = measured here: lipid fluorescence (Fed channel) AC50, cells fed with added oleic acid

SMILES	cell number change [%]	AC50 [1]	AC50 [2]
O=C1C(Cl)=C(NCCN2CCCCC2)C(=O)c2ccccc21	-3.74	0.461 µM [rising, full curve, poor fit]	0.461 µM [rising, single point]
CCN(CC)c1ccc(NC(=O)CCS(=O)(=O)c2ccc(Br)cc2)c(C)c1	8.03	–	–
CC(=O)N1CCN(S(=O)(=O)c2cccc(C(=O)Nc3nc4ccccc4[nH]3)c2)CC1	29	–	14.6 µM [rising, single point]
CCOC(=O)c1sc(NC(=O)CS(=O)(=O)c2ccc(C)cc2)nc1C	-14.3	–	4.11 µM [rising, full curve]
Cc1ccccc1OCC(=O)NNC(=O)CSc1nc(N)cc(N)n1	12	–	10.3 µM [rising, partial curve]
COc1ccccc1NC(=O)Nc1nc(CC(=O)N2CCN(c3ccccc3)CC2)cs1	–	0.231 µM [rising, full curve]	–
N#C/C(=C\N1CCN(Cc2ccc3c(c2)OCO3)CC1)c1nc2ccccc2s1	-38.4	1.64 µM [falling, partial curve]	20.6 µM [falling, partial curve]
O=C1/C(=C/c2cccnc2)SC(=S)N1C1CCS(=O)(=O)C1 (configuration not stated)	-13.2	–	6.51 µM [falling, partial curve]
CC(=O)c1ccccc1-c1csc2ncnc(Sc3nnnn3C)c12	2.15	–	0.00411 µM [rising, full curve, poor fit]
Cc1cc(C)c(C(=O)Cn2cnc3cc([N+](=O)[O-])ccc3c2=O)cc1C	-15.5	–	–
CCNc1nc(NC(C)C)nc(NC(C)(C)C)n1	-19.2	–	0.00461 µM [falling, full curve, poor fit]
CCOC(=O)/C(C#N)=C(\N)C(C)C(=O)Nc1ccccn1 (configuration not stated)	0.0258	–	0.13 µM [rising, full curve]
CCOc1ccc2c(c1)c(N=O)c(O)n2C	3.04	–	29.1 µM [rising, single point]
CCN(CC)C(=O)CSC1=C(C#N)C(c2cccs2)C=C(C)N1 (configuration not stated)	-6.83	–	2.06 µM [rising, full curve, poor fit]
Cc1ccc(C(=O)NC2CCCC2)cc1S(=O)(=O)N1CCCCC1	-16.8	–	1.03 µM [falling, single point]
COc1ccccc1Nc1ncnc2nc[nH]c12	66.3	29.1 µM [rising, single point]	29.1 µM [rising, single point]
CC(=O)c1ccc(S(=O)(=O)N2CCN(c3ccccc3F)CC2)cc1	9.67	–	0.00461 µM [falling, full curve, poor fit]
COc1ccc(CN2CCCC(C(=O)Nc3cccc(-n4cnnn4)c3)C2)c(C)c1C (configuration not stated)	23.5	0.164 µM [rising, full curve, poor fit]	–
COC(=O)CNC(c1ccccc1)c1cc(Br)ccc1NC(=O)CCN1CCOCC1 (configuration not stated)	-7.21	–	29.1 µM [falling, single point]
CC[C@]12CCCN3CCc4c(n(c5ccccc45)C(=O)C1)[C@@H]32	14.9	–	0.13 µM [falling, full curve, poor fit]
CCC(C)[C@H](NC(=O)NCc1cccc(OC)c1)C(=O)OC (some centres not stated)	-15.5	–	–

SMILES	cell number change [%]	AC50 [1]	AC50 [2]
CCCN=C1N/C(=C\c2ccco2)C(=O)N1c1ccccc1	–	–	29.1 µM [rising, single point]
CN(CC(=O)Nc1nc2ccc(F)cc2s1)S(=O)(=O)c1ccc(Cl)cc1	17.5	2.06 µM [rising, partial curve]	–
Cc1ccc(Nc2nc(COC(=O)C3CC3)cs2)cc1	-42.1	13 µM [falling, partial curve]	18.4 µM [falling, partial curve]
CCOC(=O)c1c(S(=O)(=O)NCC(=O)N2CCN(c3ccccc3OC)CC2)c(C)n(C)c1C	-7.93	–	11.6 µM [rising, partial curve]
CC(C)CC(=O)NC(=S)N1CCN(c2ccc([N+](=O)[O-])cc2Cl)CC1	-7.7	–	14.6 µM [rising, partial curve]
Cc1cccc(NC(=O)CC2(CC(=O)O)CCCC2)c1	2.84	–	–
S=c1nc2ccccc2c2nc(-c3ccccc3)[nH]n12	-0.783	–	3.26 µM [rising, full curve]
Cc1cc(S(=O)(=O)NCC(C)C)ccc1OCC(=O)NC1CC1	25.8	–	–
COc1ccc(NS(=O)(=O)c2c(C)cc(C)cc2C)cn1	15.8	–	–
CC1CCCC(C)N1C(=O)CSc1ccc(-c2ccc3c(c2)OCCO3)nn1 (configuration not stated)	9.13	–	–
CN(CC(=O)Nc1ccc(Cl)cc1)C1=NS(=O)(=O)c2ccccc21	38.1	29.1 µM [rising, single point]	–
CCN(CC)CCNC(=O)c1ccc2c(c1NCCO)C(=O)c1ccccc1C2=O	-13.1	–	16.4 µM [falling, single point]
COc1cc(N)ccc1NC(=O)c1cccs1	-22.2	–	18.4 µM [rising, single point]
O=c1[nH]c(-c2ccccn2)nc2sc(-c3ccccc3)cc12	-37.6	8.2 µM [falling, partial curve]	8.2 µM [falling, partial curve, poor fit]
CCN(CC)S(=O)(=O)c1ccc(N2CCCC2)c(NC(=O)C2=NN(c3ccccc3)C(=O)CC2)c1	-10.3	6.51 µM [falling, single point]	0.184 µM [falling, full curve, poor fit]
Cc1nc(C)c(C(=O)OCC(=O)Nc2ccccc2SCC#N)s1	11.6	–	1.16 µM [falling, full curve]
Cc1nc2c(nnn2Cc2c(Cl)cccc2Cl)c(=O)[nH]1	11.4	–	29.1 µM [rising, single point]
O=S(=O)(CCN1C=CC(C(F)(F)F)=NCC1)c1ccc(F)cc1	-31.7	18.4 µM [falling, single point]	20.6 µM [falling, single point]
COc1cc(OC)c(C2NC(=O)CCC2[N+](=O)[O-])cc1OC (configuration not stated)	–	–	0.103 µM [rising, full curve, poor fit]
CCn1nc(NC(=O)c2ccco2)c2cc3ccccc3nc21	22.4	–	0.326 µM [rising, full curve, poor fit]
CCOc1cccc(C(=O)NC(=S)Nc2ccc(N3CCN(CC)CC3)cc2)c1	103	–	–

SMILES	cell number change [%]	AC50 [1]	AC50 [2]
CC#CCOC(=O)c1c(C)nc2sc3c(c2c1N)CCC(O)C3 (configuration not stated)	37.5	0.461 µM [rising, full curve]	0.92 µM [rising, full curve]
CC(C)CNc1c(N)n(CC(C)C)c(=O)[nH]c1=O	–	–	0.116 µM [rising, single point]
COc1cccc(NC(=O)C2CCN(S(=O)(=O)c3ccc4c(c3)N(C(C)=O)CCO4)CC2)c1	29	–	6.51 µM [rising, single point]
N#C/C(=C/c1ccc(N2CCOCC2)o1)C(=O)Nc1ccccc1	-17.9	–	–
O=C(CC1C(=O)NCCN1C(=O)Nc1ccccc1)Nc1ccc2c(c1)OCCO2 (configuration not stated)	-6.18	7.31 µM [rising, single point]	–
COc1ccccc1C(=O)COC(=O)CSC(C)C(=O)Nc1cc(C)on1 (configuration not stated)	-2.09	–	20.6 µM [rising, single point]
CC(C)CC(=O)NC(NC(=S)Nc1ccccc1)C(Cl)(Cl)Cl (configuration not stated)	31.3	0.00461 µM [rising, full curve, poor fit]	0.00461 µM [rising, full curve, poor fit]
CCOc1ccc(CCNC(=O)C2CCN(S(=O)(=O)N3CCC(C)CC3)CC2)cc1OCC	29.3	–	23.1 µM [rising, single point]
CN1CCc2cccc3c2C1Cc1ccc(O)c(O)c1-3 (configuration not stated)	-23.5	–	29.1 µM [falling, single point]
Cc1ccc(CN(C(=O)COc2ccc(C)c(C)c2)C2CCS(=O)(=O)C2)o1 (configuration not stated)	8.26	–	0.13 µM [falling, full curve, poor fit]
Cc1ccc(S(=O)(=O)CCC(=O)NCc2ccco2)cc1	-1.55	–	–
Cc1cc(NC(=O)CN2CCC(C)CC2)no1	11.8	–	–
Cn1c(=O)[nH]c(=O)c2c1nc(N1CCCCC1)n2CCCSc1nnnn1-c1ccccc1	11.4	–	5.8 µM [rising, full curve, poor fit]
CCOC(=O)Cc1csc(NC(=O)C(C)c2ccc([N+](=O)[O-])cc2)n1 (configuration not stated)	60.9	11.6 µM [rising, partial curve]	3.66 µM [rising, full curve]
O=C(CC(Sc1ccc(Br)cc1)C(=O)O)c1ccc(Br)cc1 (configuration not stated)	-39.3	29.1 µM [falling, single point]	29.1 µM [falling, single point]
CCOc1ccc(/C=C(\C(=O)O)c2ccc(S(=O)(=O)N3CCOCC3)s2)cc1OC	-100	2.06 µM [falling, full curve]	–
CCN(CC)S(=O)(=O)c1cccc(-c2nnc(SCC#N)n2Cc2ccccc2)c1	–	–	29.1 µM [rising, single point]
CC(=O)NC(Cc1ccc(C)cc1)C(=O)NC1CCN(S(=O)(=O)c2ccccc2)CC1 (configuration not stated)	5.13	–	0.116 µM [rising, single point]
O=C(O)c1ccc(NS(=O)(=O)/C=C/c2ccccc2)cc1	11.4	–	25.9 µM [falling, single point]

Look-ups from the entries so far:
Entry for N#C/C(=C/c1ccc(N2CCOCC2)o1)C(=O)Nc1ccccc1 under cell number change [%]: -17.9
Entry for Cc1ccc(S(=O)(=O)CCC(=O)NCc2ccco2)cc1 under cell number change [%]: -1.55
Entry for CC#CCOC(=O)c1c(C)nc2sc3c(c2c1N)CCC(O)C3 (configuration not stated) under AC50 [2]: 0.92 µM [rising, full curve]
